# Among all 320,000 compounds or so, about 2,100 (0.66%) were called active. Inconclusive results, whose numbers are uncertain, are shown with a selection of clear calls. Calls follow the shape of the dose curve; as a rule, active = well fitted inhibition curve with a large enough effect in the signal ratio, with a control signal flat (not every such curve was filed as active); inconclusive = small, poorly fitted or top-dose-only effect, or effect the other way, or a change in a side signal; inactive = flat fitted curve, though single readings scatter; the % refers to the signal ratio. A potency beside an inconclusive call is a rough fit, not a confirmed value.
# Assay: qHTS Assay for Lipid Storage Modulators in Drosophila S3 Cells
# Settings: BODIPY lipid droplet fluorescence, 18-24 h, cells fed with added oleic acid; lipid storage change, negative = inhibition: at 46.1 µM (top of the series) unless noted
# Procedure, shortened: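 Laser-scanning cytometry quantifies lipid droplet accumulation (500–530 nm total intensity; droplet/cell object ratio) in oleic acid-fed (400 uM added) Drosophila S3 cells treated with a concentration series. 20 uM Triacsin C defined 100% inhibition.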
# % is scaled to controls: 0 for no effect and ±100 for the full control effect; potency is read from the fitted curve at half-maximal effect.
SMILES,"lipid storage change, negative = inhibition",Potency
Cc1cc([N+](=O)[O-])cc2c1NC(=O)C2(O)N1CCCCCC1 (stereo not given),inconclusive: 19.5%,
COc1cccc(C2=NOC(C(=O)Nc3ccc(C(C)=O)cc3)C2)c1 (stereo not given),inconclusive: 55%,
Cc1noc(C)c1CN1C(=O)c2cccc([N+](=O)[O-])c2C1=O,inconclusive: -16.5%,
COc1ccc(-n2nnnc2S(=O)(=O)Cc2ccc(C(=O)O)cc2)cc1,,"inconclusive: 29.1 µM [cytotoxic, single point]"
COc1ccc(CCNS(=O)(=O)c2cc3c4c(c2)C(C)C(=O)N4CCC3)cc1OC (stereo not given),inconclusive: -44.7%,
C=CCn1c(-c2cccn(Cc3ccccc3)c2=O)n[nH]c1=S,inconclusive: 30.8%,
Cc1nonc1CC(=O)NC1CC(C)(C)Cc2c1cnn2-c1ccc(F)cc1 (stereo not given),inconclusive: 0.685%,
Cc1sc2ncnc(N3CCC(C(=O)NNC(=O)COc4ccccc4F)CC3)c2c1C,inconclusive: 14.3%,
CCOc1ccc(C(=O)NNC(=O)CN2C(=O)NC3(CCCC3)C2=O)cc1,inconclusive: 51.3%,
CCOC(=O)c1[nH]c2ccc(OC)cc2c1NC(C)=O,inconclusive: 12.2% [at 9.22 µM],
O=C1c2cnc3nc(SCc4ccc(Cl)cc4)nn3c2CC2c3ccccc3CCN12 (stereo not given),inconclusive: 40.8%,
Cc1ccc(-c2nc3cccnc3s2)cc1NS(=O)(=O)c1ccc2c(c1)CCCC2,,"inconclusive: 2.31 µM [activator, partial curve]"
CC(C)=NOc1nc(N(C)C)nc(N2CCOCC2)n1,inconclusive: -18.2%,
Cc1csc(SCC(=O)c2ccc(S(=O)(=O)N3CCOCC3)cc2)n1,,"inconclusive: 3.66 µM [activator, single point]"
O=C(CN1CCN(c2ccc(F)cc2)CC1)Nc1ccccc1,inconclusive: -30.7%,
CC1(C)Cc2c(sc(NC(=O)c3ccc4c(c3)OCCO4)c2C(N)=O)C(C)(C)N1,inconclusive: 57.4%,
N#C/C(=C\c1ccccc1[N+](=O)[O-])C(=O)NCc1ccccc1,,"inconclusive: 18.4 µM [falling, single point]"
CCOc1cccc(-c2csc(C3COc4ccccc4O3)n2)c1 (stereo not given),,"inconclusive: 29.1 µM [activator, single point]"
NC(=O)/C(=N\O)c1ccccc1,,"inconclusive: 29.1 µM [activator, single point]"
CC1(C)NC(=O)N(CC(=O)N2CCN(c3cccc(Cl)c3)CC2)C1=O,,"inconclusive: 2.06 µM [activator, full curve]"
CN(C)C(=O)N1CCCC(C(=O)NCc2ccccc2)C1 (stereo not given),inactive,
Cc1ccn2c(CNCCCn3cccn3)c(C(=O)N3CCCCCC3)nc2c1,,"inconclusive: 29.1 µM [activator, single point]"
Cc1ccc2oc(=O)n(CC(=O)OCCC(C)C)c2c1,inconclusive: 0.0324%,
CCN1C(=O)CS/C1=N\S(=O)(=O)c1ccc(C)cc1,inconclusive: 4.34%,

# Random excerpt: 4 records from the list, in no set order.
SMILES,"lipid storage change, negative = inhibition",Potency
Cc1nonc1CC(=O)NC1CC(C)(C)Cc2c1cnn2-c1ccc(F)cc1 (stereo not given),inconclusive: 0.685%,
C=CCn1c(-c2cccn(Cc3ccccc3)c2=O)n[nH]c1=S,inconclusive: 30.8%,
COc1ccc(CCNS(=O)(=O)c2cc3c4c(c2)C(C)C(=O)N4CCC3)cc1OC (stereo not given),inconclusive: -44.7%,
CCOc1ccc(C(=O)NNC(=O)CN2C(=O)NC3(CCCC3)C2=O)cc1,inconclusive: 51.3%,

# Going on with the list:

SMILES,"lipid storage change, negative = inhibition",Potency
N#Cc1c(N)c(C(=O)c2ccc(Cl)cc2)n2c1CCC2,inconclusive: 1.53%,
O=C(NCCCN1CCOCC1)C(=O)NCCc1ccccc1,inactive,
CC(C)C(=O)Nc1ccc(C(=O)NNC(=O)NC2CCCCC2)cc1,inconclusive: -19.3%,
COc1cc([N+](=O)[O-])ccc1NC(=O)CSc1n[nH]c(C(C)C)n1,inconclusive: 33.3%,
Cc1ccc(NC(=S)N(CCN(C)C)C(C)c2ccco2)cc1Cl (stereo not given),inconclusive: 24%,
CC(C)c1ccc(OCC(=O)N(Cc2ccccc2)c2ccccn2)cc1,inconclusive: -72.5%,
COc1ccc(CCNC(=O)C(Sc2ccccn2)c2ccccc2)cc1OC (stereo not given),inconclusive: -28.1%,
CC(=O)N1c2ccccc2N(Cc2ccc(C)cc2C)C(=O)C1(C)C,,"inconclusive: 0.146 µM [activator, full curve, poor fit]"
CCN(CC)c1ccc(NC(=O)C2CC3CCC2C3)cc1 (stereo not given),inconclusive: 40.2%,
COc1cccc(NC(=O)NC2CCN(Cc3nnnn3Cc3ccc4c(c3)OCO4)CC2)c1,,"inconclusive: 4.11 µM [activator, partial curve, poor fit]"
O=C(Nc1ccccc1)N(CCCN1CCOCC1)Cc1ccccc1F,inconclusive: -29.2%,
Cc1cc(C)n(-c2ccc(C(=O)OCC(=O)Nc3cc(S(C)(=O)=O)ccc3Cl)cc2)n1,inconclusive: -61%,
Cc1c(NC(=O)C(C)OC(=O)COc2cccc3c2OC(C)(C)C3)c(=O)n(-c2ccccc2)n1C (stereo not given),inconclusive: -32.9%,
CCOc1ccc(NC(C)=O)cc1N,inconclusive: 10.2%,
CCN(CC)S(=O)(=O)c1cc(NC(=O)CN2C(=O)NC3(CCCc4ccccc43)C2=O)ccc1C (stereo not given),inconclusive: 27.4%,
Cc1ccc(NCc2ccccc2O)cc1C,inconclusive: -3.5%,
O=C(O)c1cccc2c1C(=O)c1ccc(N3CCCCC3)cc1S2(=O)=O,,"inconclusive: 0.0041 µM [activator, full curve, poor fit]"
COc1ccc(/C=C2\SC(=S)N(CCCC(=O)N3CCCCC3CCO)C2=O)cc1 (stereo not given),inactive,
Cn1cnc([N+](=O)[O-])c1Oc1ccc2ccccc2c1,inconclusive: -22.4%,
O=C(/C=C/c1ccccc1)Nc1cc(C(=O)O)cc(C(=O)O)c1,inconclusive: 0.79%,
COc1cccc(C(=O)Nc2cccc(SC)c2)c1,,"inconclusive: 29.1 µM [activator, single point]"
COc1ccc(C2=C3C(=O)OCC3Cc3ncn(Cc4ccccc4)c32)cc1 (stereo not given),,"inconclusive: 1.16 µM [falling, single point]"
COc1ccc(C(=O)N2CCN(C)C(=O)[C@@H]2C)cc1OC1CCN(C(C)=O)CC1,,"inconclusive: 0.103 µM [falling, full curve, poor fit]"
Cc1sc2nc(CN3CCOCC3)nc(NCCc3ccccc3)c2c1C,inconclusive: -20.4%,
CCOC(=O)N1CCN(C(=S)NC(=O)/C=C/c2ccc(C)cc2)CC1,,"inconclusive: 29.1 µM [activator, single point]"

# Reference: PubChem BioAssay AID2685 (National Center for Advancing Translational Sciences (NCATS), 2010)
